Test results: US12534742B2, “Compound for regulating gene editing efficiency and application thereof” (Shanghai Institute of Organic Chemistry, Chinese Academy of …, priority 2018, dated 2026)
Some results were stated once for a whole list of compounds, not compound by compound.

Sequences of proteins named here, by UniProt entry; tags and fusion partners are left off.
UniProt Q99ZW2, whole entry: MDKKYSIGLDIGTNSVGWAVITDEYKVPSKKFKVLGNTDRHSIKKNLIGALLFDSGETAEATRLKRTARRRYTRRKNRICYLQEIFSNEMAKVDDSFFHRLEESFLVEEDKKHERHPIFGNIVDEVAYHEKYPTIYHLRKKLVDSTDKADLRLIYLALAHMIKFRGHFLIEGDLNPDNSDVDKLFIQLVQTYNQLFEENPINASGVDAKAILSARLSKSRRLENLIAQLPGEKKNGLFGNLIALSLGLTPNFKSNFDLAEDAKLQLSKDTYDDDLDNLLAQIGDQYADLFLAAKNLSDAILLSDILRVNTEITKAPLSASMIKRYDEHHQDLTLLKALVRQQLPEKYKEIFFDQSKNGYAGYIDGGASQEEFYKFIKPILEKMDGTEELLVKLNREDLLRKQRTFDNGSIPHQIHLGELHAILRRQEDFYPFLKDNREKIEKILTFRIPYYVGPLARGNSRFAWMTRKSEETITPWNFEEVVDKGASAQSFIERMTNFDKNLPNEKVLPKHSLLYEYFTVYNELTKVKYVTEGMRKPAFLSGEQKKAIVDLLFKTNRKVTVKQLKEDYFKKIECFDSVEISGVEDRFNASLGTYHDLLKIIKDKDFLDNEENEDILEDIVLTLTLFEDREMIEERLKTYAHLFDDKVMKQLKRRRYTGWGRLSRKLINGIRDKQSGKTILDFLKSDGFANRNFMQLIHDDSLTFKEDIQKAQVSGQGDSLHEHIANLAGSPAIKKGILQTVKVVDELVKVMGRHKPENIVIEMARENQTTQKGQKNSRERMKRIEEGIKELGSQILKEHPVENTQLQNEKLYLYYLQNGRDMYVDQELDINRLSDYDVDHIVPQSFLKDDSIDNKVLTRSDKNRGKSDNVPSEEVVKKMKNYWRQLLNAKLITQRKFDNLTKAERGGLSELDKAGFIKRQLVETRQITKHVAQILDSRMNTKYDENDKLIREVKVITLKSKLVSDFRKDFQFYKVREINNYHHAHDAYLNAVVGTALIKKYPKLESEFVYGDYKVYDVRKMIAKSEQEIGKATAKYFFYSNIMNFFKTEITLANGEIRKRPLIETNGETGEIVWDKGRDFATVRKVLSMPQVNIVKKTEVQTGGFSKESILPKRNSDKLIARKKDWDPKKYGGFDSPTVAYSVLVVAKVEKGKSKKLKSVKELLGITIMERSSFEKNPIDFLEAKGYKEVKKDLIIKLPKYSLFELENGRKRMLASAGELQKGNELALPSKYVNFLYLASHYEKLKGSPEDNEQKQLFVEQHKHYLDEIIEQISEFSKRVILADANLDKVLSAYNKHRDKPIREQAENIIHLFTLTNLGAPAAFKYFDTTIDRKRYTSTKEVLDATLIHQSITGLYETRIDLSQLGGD

Biological target: T1, SpyCas9 (Streptococcus pyogenes serotype M1, UniProt Q99ZW2)
T1 construct: expressed in transfected cells; host or cells: HEK293
Assay: Inhibition of plasmid-expressed SpyCas9 editing of endogenous genes in HEK293 cells, T7E1 test
Assay type: cell-based
Conditions: method as in Example 2; no-drug group editing efficiency 4.8%
Procedure: HEK293 cells (10^5 cells/well) were seeded on a 24-well plate. 24 hours after inoculation, cells were transfected with 200 ng AAVS1-AS2 and 200 ng pST-Cas9 plasmid or 200 ng EMX1 and 200 ng pST-Cas9 plasmid in Opti-MEM medium. 6 hours after transfection, DMEM supplemented with 10% FBS and 10 μM drug (Compound 49) was used to replace Opti-MEM. The positive control for Cas9 activity was 200 ng AAVS1-AS2 and 200 ng pST-Cas9 plasmid or 200 ng EMX1 and 200 ng pST-Cas9 plasmid without drug. After the gene editing was completed, the cell genomic DNA was extracted, and the gene editing efficiency was tested by the T7E1 method (see Guschin, D. Y. et al. Methods Mol. Biol. 649, 247-256 (2010))).
The method of this example was the same as in Example 2.

Structure (SMILES) | gene editing efficiency
NC(=O)/C(=C/n1cnc(-c2cc(C(F)(F)F)cc(C(F)(F)F)c2)n1)c1cncnc1 [Compound 904] | significantly reduce
COc1cc(-c2ncn(/C=C\C(=O)OC(C)C)n2)cc(C(F)(F)F)c1 [Compound 902] | significantly reduce
O=C(/C=C\n1cnc(-c2cc(C(F)(F)F)cc(C(F)(F)F)c2)n1)NNc1cnccn1 [Compound 49] | significantly reduce
O=C(/C=C\n1cnc(-c2cc(C(F)(F)F)cc(C(F)(F)F)c2)n1)NNc1ccccn1 [Compound 901] | significantly reduce
O=C(/C=C\n1cnc(-c2cc(C(F)(F)F)cc(C(F)(F)F)c2)n1)N1CC(F)(F)C1 [Compound 903] | significantly reduce
COc1cc(/C=C/C(=O)N2CCC=CC2=O)cc(OC)c1OC [Compound 905, Piperlongumine] | significantly reduce
